Data on 106 sequences can be found in PubChem BioAssay AID1508600 (Functional Genomics Laboratory (NCATS/FGL), 2020).

Hit rate of the full screen: of about 53,000 sequences, about 3,700 (7%) were called active.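 How the source made its calls: active means gene knockdowns whose robust z-score for IL-1 alpha signal is at least 2 or at most -2, so actives lie on both sides; inactive means the rest.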 The list shows a part of the results.

The test can be described thus: Components of the Cytosolic LPS Sensing Pathway: Gene Identification via Genome-wide siRNA Screen.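 Further: robust z of the log signal after scaling to non-targeting control siRNA wells of the plate.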 As to conditions: RAW264.7 macrophages, IL-1a HTRF, actives lie on both sides, screened at 100 nM (by protocol), cells primed 5 h with Pam3CSK4 first. The procedure, abridged: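 Supernatant IL-1a by HTRF from RAW264.7 cells primed with Pam3CSK4 (5 hours) and transfected with LipidA (24 hour) after 48h siRNA knockdown at 100 nM; cell viability checked with CellTiter-Glo.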
In general terms: Time-resolved FRET reads energy transfer from a long-lived donor to a nearby acceptor.
As for GGAGAUGGAUCACUUAAAUTT against Cdh6, the z-score was inactive: 0.942.
Consider CCAGGAUCAAAGAACUUAUTT against Olfr1424, for which the z-score was active: -3.39.
Turning to GGACAGUCAAAAAUUGUUCTT against Cyp7b1, the z-score is inactive: 0.416.
With GCAACAUUGUAGAUUGAUATT against Fam32a the figure was inactive: -0.879; with GGAACUGAUAUCAUGUACATT against Slc25a5, active: 2.15; with “GCACUGUCGCAUCAUCAGATT against D230025D16Rik”, inactive: 1.83.
For the sequence GGGAUGAAGUCCUGGAUAATT against Atp6v1g1, the z-score was inactive: -0.953.
Regarding GGAUCCUGAACAUAUGAAUTT against Chst14, the z-score is inactive: -0.179.
GCAGAUCAACAAAUAGGAUTT against Sft2d1: the z-score is inactive: 0.897.
CCUAAUCUUCGUGCUUUACTT against Minpp1: the z-score is inactive: 1.4.
Take GCUUAUCGUAAAGUAGCACTT against Dnajb7: the z-score is inactive: 0.0708.
With GGGAAACUCGAGAUGUGCATT against Ankmy2, the z-score is inactive: 0.944.
As for GGACUCCCUGAAGUAGUGATT against Vmn1r226, the z-score was inactive: -0.24.
With CCAGAUUUCCUGCAUGGCUTT against Tmem223 the figure was inactive: -0.695.
With GGUCACGAACAUUUUUGCUTT against Tmem167b, the z-score was inactive: -1.94.
For the sequence GCUAUUUUCAUACAUUCCCTT against Tspoap1, the z-score is inactive: 0.144.
For the sequence GGCGAAAAAAGCUAAGCAGTT against Trmt10c, the z-score was inactive: -1.26.
GGUUGCUCAGAUUCAGAAUTT against Isy1: the z-score is inactive: -1.53.
Regarding GCAACUGGCUGAACUCUCATT against Gsdmc2, the z-score is active: 3.91.
GGAAUCAUUAAAACUCUCCTT against Ccr3: the z-score was inactive: 1.22.
On to CCGUUGGAGGUAAUUAGGATT against Dot1l, for which the z-score was inactive: 0.463.
Turning to CCAGAAUUUGUGAAAUCCGTT against Dner, the z-score was inactive: -1.96.
Turning to GGAGUGUUUAAAAGAGAAGTT against Mns1, the z-score was inactive: -0.588.
Turning to GGACAUGUGGAAAUGGAUATT against Arhgap4, the z-score was inactive: 1.97.
Turning to GCCCAACCUAGAUGAACCUTT against Tmem252, the z-score was inactive: 0.377.
With GCCAAUAGCUCCAGCUUGATT against Olfr668 the figure was inactive: 0.534; with GGACACCUGAAGUUAGUUUTT against Ndufaf1, inactive: 0.622.
Then GGGCAGGAUUGUCUGUUUATT against Pdrg1, with inactive: -1.33.
With GGUGUUGGAGCAGCUCACATT against Rpl11 the figure was inactive: 0.823; with GGGAGAAAUGCCUUUAGUCTT against Erfe, active: 3.79; with CGGGUAACUACUAGGAAGGTT against Tex37, inactive: -0.64.
Take CCUUGUAGCUCUUUAUAAATT against Strn: the z-score is active: 2.24.
Regarding CCUGAGGAACUCCAACCAATT against Ltbp4, the z-score was inactive: -0.651.
Regarding GGCAGCAAGACAACUUUUGTT against Foxp2, the z-score was inactive: -0.0973.
Regarding CGCUUCAUGACUUCUGAAUTT against Ppp1r32, the z-score is inactive: 0.0722.
Then GGAUUUGGGACUAAUUACGTT against Hsd17b7, with inactive: 1.02; and GGAAUACCAGGAAAAUAGUTT against Chm, with inactive: 0.495; and GGUGGAAAGUAUCGUUGACTT against Cdyl, with inactive: 0.188.
Regarding GGUGGUUUAAAAAACUGCUTT against Faah, the z-score was inactive: 0.681.
Consider GGUUACAAACAUUUGUGAATT against Prph2, for which the z-score is inactive: 0.0977.
Consider GGGUUUCUUGUUUCUUAGATT against Aldh6a1, for which the z-score is inactive: -0.00669.
GGAUUCUAUGACAAAGACATT against Ddx3x: the z-score was inactive: 1.84.
For GGCUAAAAUCCAUGACAUUTT against Hspa1l, the z-score was inactive: -0.211.
Regarding GGGACAACAUUUUCUUGCCTT against Ms4a6b, the z-score was inactive: -0.0956.
Then GGAGAGGAACAGGAACAGATT against Ankrd9, with inactive: 0.557.
For GGGACAACAUCCCGUCAUATT against Zfp809, the z-score was inactive: 0.281.
As to GCUGAUUCAAAACCAGGCATT against Nme2, the z-score is inactive: -1.57.
GGUUUCCUAGAGAGUAAAATT against Tctn3: the z-score is inactive: -0.215.
As for CCAUGAGCAUAGUUAUCAGTT against Ankib1, the z-score is inactive: -0.000982.
For GGAUUUCGUGUGGAUGAAATT against Haus4, the z-score was inactive: -0.957.
GGCUUUGAAACAUAAGAACTT against Zfp472: the z-score is inactive: -0.553.
As for GCGAUUACUACUUGAAACUTT against Fa2h, the z-score is inactive: -0.384.
As for CGGCAGCUUGAAAUUACUGTT against Stx3, the z-score was inactive: 1.66.
Take “CCCAUAGACAUUUAUGUAATT against D17H6S56E-5”: the z-score was inactive: -0.235.
Regarding GGAAGCCAAAGAGAAACAATT against Ighmbp2, the z-score is inactive: -0.0223.
As to GGAUGUGGUUUUACAUCUGTT against Lrp11, the z-score is inactive: -0.258.
As for GGAGGUACCAUGCUAUGCATT against Igf2r, the z-score is inactive: -0.917.
Consider GGGCUUGGCAUACUCCUAATT against Ebf4, for which the z-score was inactive: 0.134.
On to CGUGCAUCCCUAUAUCCUATT against Panx2, for which the z-score is inactive: 0.343.
Turning to GGUAAAUGAGAAAAACCUCTT against Gda, the z-score was inactive: -0.482.
Regarding GCUGUGACCCUUGUCCUUUTT against Ptms, the z-score is inactive: -0.298.
With CGGCACUAGGAAGCUUUUATT against Inpp5a the figure was inactive: -0.185.
As for GGAUAACCAACAAGGUUUUTT against Mgst1, the z-score was inactive: 0.701.
For the sequence GCAUCUACAAAUGUUUCAGTT against Zc3h12d, the z-score was inactive: 0.854.
GGUCAUAGAGACAGACUACTT against Lcn12: the z-score is inactive: -0.378.
With CCCACAAUGCUGCUAUUAUTT against Gmfb, the z-score was inactive: 0.505.
GCUCUUAGAGAUUUGUUUGTT against Usp14: the z-score was inactive: 0.389.
As for GGGUGACAGUGAUAUCCAGTT against Mc1r, the z-score was inactive: 0.279.
With GGAUGCCUUCUAUACACUATT against Hras, the z-score was inactive: -1.33.
Turning to GGAUCAUUGUCAAAGUUCUTT against Zfp959, the z-score was inactive: -0.772.
As to GCCAGUGGUGUUUGCAUAGTT against Scrn1, the z-score is inactive: 1.55.
As for CCGGAGAUAUAUCAAUAUUTT against Pcdhga3, the z-score is inactive: 0.658.
With GCCUUCAGGACGAUUUAUUTT against Pla2g7 the figure was inactive: 1.19.
For GGGAAACCACAGUAGUCUGTT against Gk, the z-score is inactive: -0.416.
As for “GCUUAUAAGAGAAAUGACUTT against 4921511C20Rik”, the z-score is inactive: -0.429.
Take CCACAAAUGAGAACUUCCCTT against Szrd1: the z-score is inactive: -0.61.
With GGCAAGAAGUAGGAAGACUTT against Nucb2 the figure was inactive: -0.907.
Regarding CGAGCUCCUUCAUAUUAAATT against Rapgef4, the z-score was inactive: 0.395.
In the case of GGUUUGUGUCUAAGGAAUUTT against Klhdc7a, the z-score was inactive: -0.203.
Take CCUGUCCAGGGUUUGACCATT against Man2c1: the z-score was inactive: -1.12.
Take CCCUGCUUACGAUUGAUAGTT against Ccr1l1: the z-score was inactive: 0.208.
Regarding GGAAGAACAGAGGCAGAAGTT against Trpv3, the z-score was inactive: -0.629.
With GCGUGAAUCCGAUCCAACUTT against Spag5, the z-score is inactive: -1.27.
Then GCUAAUAGGGUGCUUUAAUTT against Rab33b, with inactive: 0.91; and GGGAGACAUCCCGAUACAGTT against Mlf2, with inactive: 1.19; and GCUAAGUUUCACCCAAAGGTT against Dennd2c, with inactive: 1.42.
AUAUGUCUGUUUCUGCGAATT against Vmn1r189: the z-score is inactive: -0.127.
Regarding GGUCCUACAGUCCAUAGGUTT against Fstl4, the z-score is inactive: 0.667.
As to CGCAGACAGUUUGAGGCUGTT against Gpbp1, the z-score is active: -2.34.
As for GCUUUGGAGAGUCAGUAAATT against Mdn1, the z-score was inactive: 0.312.
For the sequence GGGAAAACCAUACAAAAUATT against Olfr228, the z-score is inactive: -0.525.
Turning to CCUGUACUGAACUACUUGATT against Kctd5, the z-score is inactive: 0.0535.
As to GGAGGCAGAGAAGAUGAAATT against Pacsin3, the z-score is inactive: -0.282.
Then CCCGCUCCUGUUUAGAUGUTT against Lsg1, with inactive: 0.651.
Consider GGUAUUUCACUGGUUACGUTT against B3galt1, for which the z-score was inactive: 0.959.
With GGACUUCUACGACUUCAAGTT against Gpx7 the figure was inactive: 0.747.
CCGUGGAUUAUUUUCAACGTT against Hcn1: the z-score is inactive: 0.299.
With CCAACAAAUUCAAUCAGGCTT against Nrip3, the z-score was inactive: -0.0229.
Then GGAAAGGAUACUAUGAGGATT against Ttc29, with inactive: -1.25; and GGGAGCUGCUAAAAUAAACTT against Mtcp1, with inactive: 0.278.
Take GGAGAACAUGUUGAAGUAUTT against Atp8a1: the z-score was inactive: -0.532.
With GGAUGAUGUGAUGAAGAUCTT against Fgfr4, the z-score is inactive: -0.0955.
In the case of GCAACAAGCUGGUUGGCUUTT against Ccin, the z-score is inactive: 0.414.
Regarding GCCAAAUACUUUUUUACCCTT against Slc38a2, the z-score was inactive: 0.682.
As to CAACACUGCCUCUUGCACATT against Vmn1r213, the z-score is inactive: -0.257.
As to GGCAUCUCUAUCAAGUUGCTT against Rps17, the z-score was inactive: 0.534.
